{"source": "PubChem BioAssay (NCATS)", "note": "The list shows a part of the results. The main result of the screen is listed elsewhere. These columns were measured beside it and carry no call. Most of these compounds were active or inconclusive in the main read-out, so they are no random draw. The note in brackets gives the kind of curve behind each potency; many fits are weak."}
{"assay": "qHTS Assay for Inhibitors of PDE-IV (AID 607)", "conditions": "HEK293 ACTOne CNG channel cells, membrane potential fluorescence; measured here: parental cell counter-screen", "how_it_was_run": "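Live HEK293 cells with a modified cyclic nucleotide-gated (CNG) channel report intracellular cAMP via membrane-potential dye fluorescence (ex 535/em 590 nm). Endogenous PDE-IV was targeted. Compounds were tested at up to 22.9 uM final; RO 20-1724 100 uM served as control.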"}
{"smiles": "O=C(O)CCC(=O)c1ccc(-c2ccccc2)cc1", "AC50": "2 µM [rising, partial curve, poor fit]"}
{"smiles": "COc1cccc(-c2ccc3ncnc(NCc4ccc(OC)cc4OC)c3c2)c1", "AC50": "10 µM [rising, single point]"}
{"smiles": "O=C(c1ccco1)N1CCC2(CCN(Cc3cc(C(F)(F)F)cc(C(F)(F)F)c3)CC2)CC1", "AC50": "12.6 µM [rising, single point]"}
{"smiles": "c1cc2c3c(c1)c1c(n3CCNC2)CCCC1", "AC50": "6.31 µM [rising, partial curve, poor fit]"}
{"smiles": "Cc1cccc(CNc2cc(-c3ccccc3C)ncn2)c1", "AC50": "15.8 µM [rising, single point]"}
{"smiles": "CSc1ccc2c(c1)[C@H](N1CCN(C)CC1)Cc1ccccc1S2", "AC50": "15.8 µM [rising, single point]"}
{"smiles": "CN1CCN(C2=Cc3ccccc3Oc3ccc(Cl)cc32)CC1", "AC50": "31.6 µM [rising, partial curve, poor fit]"}
{"smiles": "O=C(Nc1ccccc1)N1CCCC2(CCN(C(=O)c3cccc(F)c3)CC2)C1", "AC50": "1.26 µM [rising, partial curve]"}
{"smiles": "O[C@H](CN1CCN(c2cccc(Cl)c2)CC1)C(c1ccccc1)c1ccccc1", "AC50": "15.8 µM [rising, partial curve]"}
{"smiles": "COC(=O)N1CCC2(CCN(C(=O)Nc3ccc(OC)cc3)CC2)CC1", "AC50": "15.8 µM [rising, single point]"}
{"smiles": "COC(=O)N1CCC2(CCCN(C(=O)Nc3ccccc3)C2)CC1", "AC50": "0.0316 µM [falling, full curve, poor fit]"}
{"smiles": "COc1cccc(-c2nccc(NCc3cccs3)n2)c1", "AC50": "7.94 µM [rising, partial curve]"}
{"smiles": "CC(=O)Oc1cc(C(F)(F)F)ccc1C(=O)O", "AC50": "5.01 µM [rising, partial curve]"}
{"smiles": "c1ccc(CNc2ncncc2-c2ccc3c(c2)OCO3)cc1", "AC50": "7.94 µM [rising, partial curve]"}
{"smiles": "c1ccc(-c2ccc(N3CCCC4(CCNCC4)C3)cc2)cc1", "AC50": "1 µM [rising, partial curve]"}
{"smiles": "Cc1ccccc1-c1ccc2ncnc(NCc3cccs3)c2c1", "AC50": "10 µM [rising, partial curve]"}
{"smiles": "c1ccc(N2CCN(CCCOc3ccc4c(c3)OCO4)CC2)cc1", "AC50": "12.6 µM [rising, partial curve]"}
{"smiles": "CCCCCN=c1ccn(Cc2ccccc2)c2ccccc12", "AC50": "15.8 µM [rising, partial curve]"}
{"smiles": "Cn1cccc1C(=O)N1CCC2(CCCN(c3ncccn3)C2)CC1", "AC50": "3.98 µM [rising, single point]"}
{"smiles": "Cc1ccccc1-c1ccc2ncnc(NCc3cccnc3)c2c1", "AC50": "10 µM [rising, partial curve]"}
{"smiles": "N#Cc1cccc(NC(=O)N2CCCC3(CCN(C(=O)c4csnn4)CC3)C2)c1", "AC50": "0.398 µM [rising, single point]"}
{"smiles": "COc1ccccc1CNc1ncncc1-c1ccccc1C(F)(F)F", "AC50": "10 µM [rising, single point]"}
{"smiles": "O=C(c1cccc(F)c1)N1CCC2(CC1)CCN(c1ccccn1)CC2", "AC50": "15.8 µM [rising, single point]"}
{"smiles": "COc1cccc(Cn2c(=O)c(-c3cccs3)nc3cnc(Nc4ccccc4)nc32)c1", "AC50": "3.98 µM [rising, single point]"}
